Reference: PubChem BioAssay AID504834 (National Center for Advancing Translational Sciences (NCATS), 2011)
Hit rate of the full screen: of about 320,000 compounds, about 22,000 (6.9%) were called active. This list was built around the results that the source calls inconclusive (neither active nor inactive); the mix of calls is not that of the screen. Calls follow the shape of the dose curve; as a rule, active = well fitted inhibition curve with a large enough effect; inconclusive = small, poorly fitted or top-dose-only effect, or another doubt; inactive = no such curve, though single readings can be large or run the other way. A potency beside an inconclusive call is a rough fit, not a confirmed value.

Assay: Primary qHTS for delayed death inhibitors of the malarial parasite plastid, 96 hour incubation
Details: P. falciparum luciferase reporter growth; series mostly up to 28.7 µM
Summary of the method: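 Delayed-death screen, second-generation endpoint: infected erythrocytes, 2% hematocrit, 0.05% parasitemia final; 96 hours at 37 C, 5% CO2; luciferase detection reagent; luminescence decrease equals reduced growth.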
Potency is read from the fitted curve at half-maximal effect.

Structure (SMILES)	Potency
Cc1ccc(S(C)(=O)=O)cc1C(=O)OCC(=O)N1CCCC1=O	inactive
Cc1ccc2c(c1)N(Cc1cccc(Cl)c1)C(=O)c1cccnc1O2	inconclusive: 13.1 µM [inhibitor, partial curve]
O=C(CCC1CCCCC1)NNC(=O)c1cnccn1	inconclusive: 9.28 µM [inhibitor, partial curve, poor fit]
C/C(=N\Nc1ccc(F)cc1)c1ccc(N2CCOCC2)c(F)c1	inconclusive: 18.5 µM [inhibitor, single point]
Cc1noc(C)c1CSCC(=O)Nc1cc(C(F)(F)F)ccc1N1CCCCC1	inconclusive: 13.1 µM [inhibitor, partial curve, poor fit]
Cc1cccc(N(CC(=O)NCCSc2ccccn2)S(=O)(=O)c2ccccc2)c1	inconclusive: 5.86 µM [inhibitor, partial curve]
C[C@@H]1C=C[C@](Cc2ccccc2)(C(=O)NCCc2c[nH]c3ccccc23)N1C(=O)c1ccccc1	inconclusive: 18.5 µM [inhibitor, single point]
O=C(CSc1ccc(-c2ccccn2)nn1)NC1CCCCC1	inconclusive: 11.7 µM [inhibitor, single point]
COc1ccc(S(=O)(=O)NNC(=O)c2ccc(-n3c(C)ccc3C)cc2)cc1	inconclusive: 3.29 µM [inhibitor, partial curve]
Cc1cc(NC(=O)C(C)C)ncc1NC(=O)c1cccc(F)c1	inconclusive: 2.62 µM [inhibitor, partial curve, poor fit]
Cc1ccc(NC(=O)c2ccc(NCCc3ccccc3)c([N+](=O)[O-])c2)cc1F	active: 8.28 µM
O=c1c2ccccc2sn1-c1ccc(F)cc1	inconclusive: 18.5 µM [inhibitor, single point]
C=C(C)Cn1c(N2CCCC2)nc2c1c(=O)n(C)c(=O)n2C	inactive
CCn1c(=O)c2cc(C(=O)N3CCN(C)CC3)sc2c2ccccc21	inactive
O=C(Nc1cccc(S(=O)(=O)N2CCOCC2)c1)c1ccccn1	inconclusive: 18.5 µM [inhibitor, single point]
CCOC(=O)N1CCN(c2c(NCC3CCN(Cc4cccc(C)c4)CC3)c(=O)c2=O)CC1	active: 6.57 µM
COc1ccc(/C=C2\SC(=O)N(CCC(=O)N(C)C3CCS(=O)(=O)C3)C2=O)cc1 (stereo not given)	inconclusive: 18.5 µM [inhibitor, single point]
Cc1ccc(NC(=O)CCc2nnc3ccc(N4CCC5(CC4)OCCO5)nn23)nc1	inconclusive: 1.47 µM [inhibitor, partial curve]
COCCCN(C(=O)c1ccc(N2CCCC2=O)cc1)c1c(N)n(Cc2ccccc2)c(=O)[nH]c1=O	inconclusive: 3.7 µM [inhibitor, full curve]
COc1cccc2sc(N(CCN(C)C)C(=O)/C=C/c3cccs3)nc12	inconclusive: 14.7 µM [inhibitor, partial curve, poor fit]
Cc1cc2c(c(=O)n1C1CC1)C(c1cccc(Cl)c1)C(C#N)=C(N)O2 (stereo not given)	inconclusive: 18.5 µM [inhibitor, single point]
Cc1[nH]c(C)c(S(=O)(=O)N2CCC(C)CC2)c1C(=O)N1CCCC1	inconclusive: 1.85 µM [inhibitor, full curve]

Structure (SMILES)	Potency
Cn1c(CSCc2ccccc2Cl)nnc1SCC(=O)Nc1nccs1	active: 11.7 µM
COC(=O)Cn1c(=O)c(C(=O)CCl)c(N)n(Cc2ccccc2)c1=O	inactive
CCOC(=O)c1c(-n2c(C)cc(/C=C3\C(=O)NC(=O)N(C)C3=O)c2C)sc2c1CCCC2	active: 3.7 µM
CCC(C)(C)NC(=O)C(c1ccc(OC)cc1)N(C(=O)CCC(=O)Nc1cc(C)on1)c1ccc2c(c1)OCCO2 (stereo not given)	inconclusive: 9.28 µM [inhibitor, partial curve]
CCOc1ccc(CNC(=O)CCc2cn(C)c3ccccc23)cc1	inactive
CCN(CC(=O)Nc1ccc2c(c1)OCCO2)C(=O)c1cc(Cl)nc2ccccc12	inconclusive: 18.5 µM [inhibitor, single point]
CC1CCN(S(=O)(=O)c2ccc3c(c2)N(CC(=O)N(C)Cc2ccco2)C(=O)CO3)CC1	inconclusive: 20.8 µM [inhibitor, partial curve, poor fit]
CCCC(=O)Nc1ccc(-c2nc3cc(C)c(C)cc3o2)cc1	inconclusive: 0.329 µM [inhibitor, full curve, poor fit]
Cc1cc(-n2[nH]c(C)c(C)c2=O)nc(-c2ccccc2O)n1	inconclusive: 18.5 µM [inhibitor, single point]
COc1ccc(Nc2ccnc3ccccc23)cc1	inconclusive: 13.1 µM [inhibitor, partial curve, poor fit]
NC[C@@H]1O[C@H](O[C@@H]2[C@H](O[C@@H]3O[C@H](CO)[C@@H](O)[C@@H]3O)[C@@H](O)[C@@H](N)C[C@H]2N)[C@@H](N)[C@H](O)[C@@H]1O	inactive
CC1CCN(c2ccc(NC(=O)c3ccc([N+](=O)[O-])o3)cc2)CC1	inactive
CCN(CC)CCN(C(=O)c1ccc2c(c1)OCCO2)c1nc2cc(C)cc(C)c2s1	inconclusive: 18.5 µM [inhibitor, single point]
CCOc1cccc(=O)c2c(C)n(Cc3ccco3)c(C)c12	inconclusive: 18.5 µM [inhibitor, single point]
NNc1ccc(Cl)c(C(=O)O)c1	inactive
CCOC(=O)CSc1nnc(-c2ccco2)n1-c1ccccc1	inactive
Cc1ccc(NC(=O)CSCC(=O)Nc2ccccc2N2CCCCC2)cc1	inconclusive: 18.5 µM [inhibitor, single point]
Cc1ccnc(NC(=O)c2sc3ccccc3c2Cl)c1	inactive
COC(=O)c1cn(NC(=O)/C=C/c2cccc(OC)c2OC)c(=O)c2ccccc12	inconclusive: 11.7 µM [inhibitor, partial curve, poor fit]
COc1ccc(-c2cc3c(=O)n(CC(=O)Nc4ccc(Cl)cc4)ncn3n2)cc1	inactive
Cc1cc(C(=O)Oc2cccnc2)ccc1[N+](=O)[O-]	active: 3.7 µM

Of the compounds above, three have a nitro group on carbon.
Structure (SMILES)	Potency
Cc1ccc(NC(=O)c2ccc(NCCc3ccccc3)c([N+](=O)[O-])c2)cc1F	active: 8.28 µM
CC1CCN(c2ccc(NC(=O)c3ccc([N+](=O)[O-])o3)cc2)CC1	inactive
Cc1cc(C(=O)Oc2cccnc2)ccc1[N+](=O)[O-]	active: 3.7 µM

Going on with the list:

Structure (SMILES)	Potency
O=C(NC(=S)NCc1ccccc1)C1CCCCC1	inconclusive: 11.7 µM [inhibitor, partial curve, poor fit]
CCCCC1=CC2=C(c3ccco3)C(=O)C(C)(OC(=O)c3ccc(OC)cc3)C(=O)C2=CN1CCCCO (stereo not given)	inconclusive: 11.7 µM [inhibitor, single point]
Cc1ccc(-c2nnc(N3CCC(C)CC3)c3ccccc23)cc1C	inconclusive: 0.465 µM [inhibitor, partial curve, poor fit]
COc1cc(C(=O)N/N=C(\Cc2ncc[nH]2)c2ccccc2)cc(OC)c1OC	inactive
CCN(CC)C(=O)Cn1cnc2sc(C(=O)N3CCN(Cc4ccc5c(c4)OCO5)CC3)c(C)c2c1=O	inconclusive: 0.0037 µM [inhibitor, full curve, poor fit]
CCOC(=O)c1sc2nc(C)nc(SC(C)C(=O)NC3CC3)c2c1C (stereo not given)	inactive
CSc1ccccc1NC(=O)CN(C)C(=O)Cc1c[nH]c2ccccc12	inconclusive: 18.5 µM [inhibitor, single point]
NS(=O)(=O)c1ccc(NC(=O)COc2ccc(C(=O)c3ccc(F)cc3)cc2)cc1	inconclusive: 10.4 µM [inhibitor, single point]
Cc1ccc(NC(=S)/C(=C(\[O-])c2ccc(Cl)s2)[n+]2cccc(CO)c2)cc1C	inconclusive: 18.5 µM [inhibitor, single point]
CCn1c(-c2ccc(S(=O)(=O)N3CCOCC3)cc2)csc1=Nc1ccc(C)c(Cl)c1	inactive
CCOc1ccc(CN(C)CC(=O)Nc2cc(C)c(C)cc2[N+](=O)[O-])cc1	inconclusive: 13.1 µM [inhibitor, partial curve, poor fit]
O=C(c1ccc2c3n(nc2c1)-c1ccc(Cl)cc1CO3)N1CCCCC1	inactive
COc1ccccc1NC(=O)C1CCN(C(=O)c2ccco2)CC1	inactive
COc1ccc(-c2nn(-c3ccccc3)cc2C(=O)N2CCN(S(=O)(=O)c3cccc(F)c3)CC2)cc1	inconclusive: 10.4 µM [inhibitor, partial curve, poor fit]
COc1ccccc1N(CC(=O)NC1CCCCC1)C(=O)CCC(=O)Nc1ccccn1	inconclusive: 0.0037 µM [inhibitor, full curve, poor fit]
CC1CCN(c2nc3ccc(C(=O)N4CCN(Cc5ccc6c(c5)OCO6)CC4)cc3s2)CC1	active: 4.15 µM
CCCCn1c(O)c(C=NC2CC3CCC2(C)C3(C)C)c(=O)[nH]c1=O (stereo not given)	inconclusive: 16.5 µM [inhibitor, single point]
NC(=O)C1=C[C@H](c2csc3ccccc23)C[C@H](OCc2ccc(CO)cc2)O1	inconclusive: 20.8 µM [inhibitor, partial curve, poor fit]
Cc1ccc(NC(=O)CSc2nc3c(c(=O)[nH]2)CCC3)c(C)c1	inconclusive: 2.08 µM [inhibitor, full curve]
COc1cccc(N2CCN(CC(=O)c3c[nH]c4ccc(OC)cc34)CC2C)c1 (stereo not given)	inconclusive: 11.7 µM [inhibitor, single point]
COc1ccc(-c2noc(-c3ccccc3-c3ccccc3)n2)cc1	inconclusive: 3.7 µM [inhibitor, partial curve, poor fit]
